Laboratory results reported in patent US20130156764A1, “NEUTRALIZATION OF FLT3 LIGAND AS A LEUKEMIA THERAPY” (The Johns Hopkins University, priority 2010, published 2013).

Test system: FLT3 autophosphorylation in Molm14 cells (FLT3/ITD)
Experiment: Inhibition of FLT3 autophosphorylation in Molm14 cells in presence of FL (immunoblot)
Assay type: cell-based
Description: Leukemia cells were washed in PBS, then lysed by re-suspending them in lysis buffer (20 mM Tris pH 7.4, 100 mM NaCl, 1% Igepal (Sigma, St. Louis, Mo.), 1 mM EDTA, 2 mM NaV04, plus Complete protease inhibitor (Roche)) for 30 minutes while rocking. The extract was clarified by centrifugation at 14,000 rpm and the supernatant was assayed for protein (Bio-Rad, Richmond, Calif.). A 50 μg aliquot was removed as whole-cell lysate for analysis of STAT5, and the remainder was used for immunoprecipitation with anti-FLT3 antibody. Anti-FLT3 antibody (SI8; Santa Cruz Biotechnology, Santa Cruz, Calif.) was added to the extract for overnight incubation, then protein A sepharose (Upstate Biotechnology, Lake Placid, N.Y.) was added for 2 additional hours. Separate SDS-PAGE (sodium dodecylsulfate polyacrylamide electrophoresis) gels for whole-cell lysate and immunoprecipitates were run in parallel, After transfer to Immobilon membranes (Millipore, Bedford, Mass.), immunoblotting was performed with antiphosphotyrosine antibody (4G10; Upstate Biotechnology, Lake Placid, N.Y.) to detect phosphorylated FLT3, and then stripped and re-probed with anti-FLT3 antibody to measure total FLT3. Proteins were visualized using chemiluminescence (ECL; GE Healthcare, Piscataway, N.J.), exposed on Kodak BioMax XAR Film, developed, and scanned using a BioRad GS800 densitometer.

Question: CO[C@@H]1[C@H](N(C)C(=O)c2ccccc2)C[C@H]2O[C@]1(C)n1c3ccccc3c3c4c(c5c6ccccc6n2c5c31)C(=O)NC4 [Midostaurin] was tested. Which “effect of FL on dose response curve for inhibition of FLT3 autophosphorylation” value (exogenous FL, in medium and plasma) did it give?
Answer: Its value is “upward shift in the dose response curves”.

Question: What about the “effect of addition of FL on inhibition at the highest doses used” value (medium and plasma) of the same molecule?
Answer: Its value is “loss of complete inhibition”.
